Reference: paper PMC2416439
No constants are given. Whether binding was seen depends on the method and setting. In cells and extracts the contact can be indirect. Some results given as binding are weak or reduced against the parent protein; the word gives no strength.

Target: T1, Serum responsive factor (SRF) (mouse (endogenous in hippocampus)) (UniProt Q9JM73)
T1 sequence: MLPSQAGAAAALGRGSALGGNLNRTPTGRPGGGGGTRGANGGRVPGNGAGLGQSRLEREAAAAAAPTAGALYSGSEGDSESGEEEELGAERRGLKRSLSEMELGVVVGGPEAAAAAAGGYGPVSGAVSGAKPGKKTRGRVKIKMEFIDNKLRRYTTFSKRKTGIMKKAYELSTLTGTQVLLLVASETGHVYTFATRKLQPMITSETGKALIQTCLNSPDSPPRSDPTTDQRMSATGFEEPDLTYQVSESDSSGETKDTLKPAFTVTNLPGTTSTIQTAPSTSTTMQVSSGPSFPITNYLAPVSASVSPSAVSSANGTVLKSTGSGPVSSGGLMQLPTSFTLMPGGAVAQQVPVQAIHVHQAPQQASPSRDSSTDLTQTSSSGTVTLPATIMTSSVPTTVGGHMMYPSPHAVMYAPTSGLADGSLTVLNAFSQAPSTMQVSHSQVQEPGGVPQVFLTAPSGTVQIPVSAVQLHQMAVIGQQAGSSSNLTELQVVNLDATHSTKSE
Test: co-IP; IP of SRF from hippocampal extracts; Western blot with HOP antibody

B1: HOP (Homeodomain only protein) (protein, UniProt Q8R1H0 1-73)
chain: MSAQTASGPTEDQVEILEYNFNKVNKHPDPTTLCLIAAEAGLTEEQTQKWFKQRLAEWRRSEGLPSECRSVTD
binding: binds
